In PMC8316347 one finds binding data, which are given here for six substances.

Amino acid sequences for entries named in this document (tags omitted). A change or cut given only in a name is not applied to a line headed by its entry. Chains listed by the source or under a name are the forms on record and can include a tag or linker. Residues count along the entry.
human Wnt3a-10xhis wild type (BacMam-Wnt3A-10xhis plasmid) expressed in HeLa cells (P56704, residues 19-352): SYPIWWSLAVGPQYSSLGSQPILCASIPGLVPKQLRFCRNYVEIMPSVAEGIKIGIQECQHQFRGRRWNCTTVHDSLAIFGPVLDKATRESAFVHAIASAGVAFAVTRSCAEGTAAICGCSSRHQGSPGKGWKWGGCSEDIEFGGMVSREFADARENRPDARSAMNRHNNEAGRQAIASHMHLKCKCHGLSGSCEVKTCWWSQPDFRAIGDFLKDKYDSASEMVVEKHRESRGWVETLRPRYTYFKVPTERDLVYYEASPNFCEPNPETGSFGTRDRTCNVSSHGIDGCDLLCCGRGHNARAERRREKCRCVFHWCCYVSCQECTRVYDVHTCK
human Wnt3a W333A mutant (Hairpin-2), 10xhis, expressed in HeLa cells (P56704, form named): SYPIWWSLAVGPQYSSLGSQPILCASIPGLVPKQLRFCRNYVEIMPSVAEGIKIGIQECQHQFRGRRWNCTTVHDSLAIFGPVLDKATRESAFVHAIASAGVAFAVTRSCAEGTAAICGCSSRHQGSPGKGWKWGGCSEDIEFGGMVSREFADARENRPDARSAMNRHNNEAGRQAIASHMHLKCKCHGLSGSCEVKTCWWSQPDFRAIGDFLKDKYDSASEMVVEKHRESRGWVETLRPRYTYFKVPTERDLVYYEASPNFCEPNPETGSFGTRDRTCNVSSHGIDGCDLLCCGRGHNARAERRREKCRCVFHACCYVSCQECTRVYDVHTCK
human Wnt3a K215A/W218A mutant (Hairpin-1), 10xhis, expressed in HeLa cells (P56704, form named): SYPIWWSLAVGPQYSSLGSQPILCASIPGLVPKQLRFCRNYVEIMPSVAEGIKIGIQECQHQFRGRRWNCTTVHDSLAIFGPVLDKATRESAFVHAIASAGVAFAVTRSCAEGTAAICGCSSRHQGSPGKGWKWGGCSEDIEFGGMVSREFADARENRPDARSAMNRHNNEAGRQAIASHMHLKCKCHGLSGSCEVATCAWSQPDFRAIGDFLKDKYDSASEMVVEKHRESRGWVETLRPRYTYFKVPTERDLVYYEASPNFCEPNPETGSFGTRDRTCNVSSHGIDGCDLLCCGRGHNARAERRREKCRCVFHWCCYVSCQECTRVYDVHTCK
human Wnt3a S209A mutant (Hairpin-1, palmitoleoylation site), 10xhis, expressed in HeLa cells (P56704, form named): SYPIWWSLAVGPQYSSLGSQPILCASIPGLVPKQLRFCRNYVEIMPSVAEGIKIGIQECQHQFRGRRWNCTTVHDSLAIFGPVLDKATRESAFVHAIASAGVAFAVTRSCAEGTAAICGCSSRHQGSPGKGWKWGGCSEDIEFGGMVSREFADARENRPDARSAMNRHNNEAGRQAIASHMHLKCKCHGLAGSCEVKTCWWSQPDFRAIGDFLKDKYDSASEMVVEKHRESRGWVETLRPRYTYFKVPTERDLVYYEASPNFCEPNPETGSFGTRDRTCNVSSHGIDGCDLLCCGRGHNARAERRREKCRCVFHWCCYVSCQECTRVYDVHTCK

Assay [1] concerns the target T1, human WLS-Flag (BacMam-WLS-Flag plasmid) expressed in HeLa cells (human) (UniProt Q5T9L3).
T1 sequence: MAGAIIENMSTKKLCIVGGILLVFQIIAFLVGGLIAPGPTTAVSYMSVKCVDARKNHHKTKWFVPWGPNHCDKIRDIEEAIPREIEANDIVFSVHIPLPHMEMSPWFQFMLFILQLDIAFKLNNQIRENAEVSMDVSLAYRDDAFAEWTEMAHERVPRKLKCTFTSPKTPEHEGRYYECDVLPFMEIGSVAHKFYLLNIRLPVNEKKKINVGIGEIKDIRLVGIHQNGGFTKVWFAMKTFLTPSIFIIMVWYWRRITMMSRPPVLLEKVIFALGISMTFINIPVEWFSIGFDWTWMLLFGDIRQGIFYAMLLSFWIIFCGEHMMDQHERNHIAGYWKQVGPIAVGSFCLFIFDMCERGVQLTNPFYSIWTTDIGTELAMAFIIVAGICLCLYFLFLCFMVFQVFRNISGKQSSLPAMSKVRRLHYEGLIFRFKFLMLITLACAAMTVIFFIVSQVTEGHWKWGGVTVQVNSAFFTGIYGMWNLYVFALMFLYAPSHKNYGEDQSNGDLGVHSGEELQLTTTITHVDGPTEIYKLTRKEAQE
In words: co-IP; HeLa cells co-transfected with BacMam-Wnt3A-10xhis and BacMam-WLS-Flag (total 1 µg at 1:1, total 2.5 µg at 1:1, or total 2.5 µg at 4:1 Wnt3a:WLS DNA); lysis in 25 mM Tris-HCl pH 8.0, 150 mM NaCl, 1% Triton X-100; anti-Flag resin; washes with 300 mM NaCl, 0.1% Triton X-100; western blotting with anti-Wnt3a and anti-WLS. A general note: In western blotting, separated proteins are transferred to a membrane and probed.

Assay [2] addresses T2, human Wntless (WLS), C-terminal Flag tag, co-expressed with Wnt3a in HEK293S GnTI- cells (human) (UniProt Q5T9L3).
T2 sequence: T1 sequence
The assay can be described thus: cryo-EM structure; WLS-Wnt3a complex co-expressed and purified, 0.19 mg/ml, in 25 mM Tris pH 8.0, 150 mM NaCl, 0.03% GDN; graphene oxide coated grids; Titan Krios 300 kV; both purified.

In assay [3] the target is T2, human Wntless (WLS), C-terminal Flag tag, co-expressed with Wnt3a in HEK293S GnTI- cells (human). In words: SEC; Wnt3a S209A co-expressed with WLS, complex purified and run on gel filtration; both purified.

Results are given in words; binding and its absence hold for the method and conditions named. For part of these data: Binding seen in cells or lysates may run through a third protein. Some binding calls cover weakened binding; strength is not graded here. Where a sequence is shown, tags or fusion partners need not be part of it.

As for “human Wnt3a W333A mutant (Hairpin-2), 10xhis, expressed in HeLa cells (from UniProt P56704 19-352) (ligand)”, the binding entry in assay [1] is on record as “binds”.

Turning to “human Wnt3a, C-terminal 10xhis tag, co-expressed with WLS in HEK293S GnTI- cells (from UniProt P56704 19-352) (ligand)”, in assay [2], the binding result is recorded as “binds”.

For the substance “human Wnt3a K215A/W218A mutant (Hairpin-1), 10xhis, expressed in HeLa cells (from UniProt P56704 19-352) (ligand)”, the binding entry in assay [1] is on record as “binds weakly”.

Regarding “human Wnt3a-10xhis wild type (BacMam-Wnt3A-10xhis plasmid) expressed in HeLa cells (from UniProt P56704 19-352) (ligand)”, in assay [1], the binding entry is on record as “binds”.

As to “human Wnt3a S209A mutant, co-expressed with WLS and purified (from UniProt P56704 19-352) (ligand)”, the binding entry in assay [3] is listed as “binds”.

Consider “human Wnt3a S209A mutant (Hairpin-1, palmitoleoylation site), 10xhis, expressed in HeLa cells (from UniProt P56704 19-352) (ligand)”, for which the binding entry in assay [1] was “binds”.
